In PMC7819943, “Rice protein-binding microarrays: a tool to detect cis-acting elements near promoter regions in rice”:
This is one part of the list.

molecular target: T1, OsSMF1 (Oryza sativa, UniProt Q6ZLB0 1-436); test: protein-binding microarray (RPBM); PBS, 2% BSA, 51.3 ng/ul salmon testes DNA, 50 uM zinc acetate, 200 nM TF, 25 C, 1 h; high values mean tight binding; settings: protein: recombinant; tags: N-terminal polyhistidine and DsRed monomer fusion (pET32a); chain copies: 2; label: CyDye5-dUTP incorporated in the synthesized complementary strand; 3' TTTTT single-stranded linker to array surface; dsDNA, one strand shown
T1 sequence: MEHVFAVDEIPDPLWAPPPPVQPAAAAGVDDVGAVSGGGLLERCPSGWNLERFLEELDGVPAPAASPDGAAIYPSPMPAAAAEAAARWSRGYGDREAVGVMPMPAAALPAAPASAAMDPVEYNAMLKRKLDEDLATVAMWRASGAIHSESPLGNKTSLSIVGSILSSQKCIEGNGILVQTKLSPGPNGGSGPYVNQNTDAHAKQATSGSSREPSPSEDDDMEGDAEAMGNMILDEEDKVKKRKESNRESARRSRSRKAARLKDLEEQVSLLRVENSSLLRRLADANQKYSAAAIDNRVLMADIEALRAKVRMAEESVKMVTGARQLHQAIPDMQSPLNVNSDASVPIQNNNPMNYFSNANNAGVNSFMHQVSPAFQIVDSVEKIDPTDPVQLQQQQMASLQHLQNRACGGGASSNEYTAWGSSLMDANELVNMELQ
Summary of the method: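 For the binding signal, per-feature fluorescence intensity was read in arbitrary units on an Axon 4000B scanner. Before scanning, a 2% BSA-blocked custom Agilent array made double-stranded with Cy5-dUTP was washed after 1 h at 25 °C with 200 nM protein and 50 µM zinc acetate. The proteins were Ni–NTA-purified transcription factors with N-terminal polyhistidine and DsRed fusions, expressed in E. coli BL21-CodonPlus.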

Sequence	binding signal
ACCTTCACACAAAGTTATTTGTATATGTTTGTCTCGAAAACGGAGTCACCTAGTGCAG	30400 fluorescence intensity (a.u.)
TGATTGATGATCTGTCAACAGTCACCTTTTCTTTTATCAACGGAGTCACCTAGTGCAG	5520 fluorescence intensity (a.u.)
TTGATTTGATTTTGGATGACCTGGTCCATGGACCTGGTAGCGGAGTCACCTAGTGCAG	3640 fluorescence intensity (a.u.)
TTGGGTAATTTTGAAAAGAATATCCAGCCCAGTGGCGTATCGGAGTCACCTAGTGCAG	11300 fluorescence intensity (a.u.)
TAAACTGAACATGCCCGTAGTACTGTAAGATTCTTTGTGACGGAGTCACCTAGTGCAG	3700 fluorescence intensity (a.u.)
TCGGAGCTACCGTCGTGCTCACCCGCGTGGCCGCAGGCCCCGGAGTCACCTAGTGCAG	34400 fluorescence intensity (a.u.)
GGCCCACGTGGGTCCCACACTGACTCAGCTGCCACGTGGGCGGAGTCACCTAGTGCAG	38600 fluorescence intensity (a.u.)
CCCGCCACCCCGGCACGCCCGCTCTCCTCTGCTCGGCGCACGGAGTCACCTAGTGCAG	3260 fluorescence intensity (a.u.)
CACCAGCAGAGCAGAGCAACCACCTGACGTCATGCGTACCCGGAGTCACCTAGTGCAG	11600 fluorescence intensity (a.u.)
CCCACGGCGCAACGATGACGATGACGATGCCCTTCCGGCGCGGAGTCACCTAGTGCAG	46900 fluorescence intensity (a.u.)
GTGCGTGCAGCGTGGCCGACGGCCGACACGTGGGACGCGGCGGAGTCACCTAGTGCAG	9970 fluorescence intensity (a.u.)
CAATCTAATGGATTTGAAGCGATATGACACTTTAATCCTGCGGAGTCACCTAGTGCAG	3880 fluorescence intensity (a.u.)
CGCATCCACCATTCCATTCACCATTCCACCCCTCGCCCGCCGGAGTCACCTAGTGCAG	23600 fluorescence intensity (a.u.)
AACTAAAGCGAAAGCGCGTCGCTTTGCTTTGTCATGTCGGCGGAGTCACCTAGTGCAG	3930 fluorescence intensity (a.u.)
GAATGCGCACGTGGCTGGTACAACGACGTGGGGCCTGGCGCGGAGTCACCTAGTGCAG	11400 fluorescence intensity (a.u.)
TTTACCTTGTAGAGGTCATCAAACTCTAATCGTACCTGAACGGAGTCACCTAGTGCAG	6180 fluorescence intensity (a.u.)
CATGCAAGCTTACTCACTTTCCCTCTTGCAGTGTGTTCTCCGGAGTCACCTAGTGCAG	3500 fluorescence intensity (a.u.)
GTCAGATCTTTAGACCGCCACGTTGACAACAGTTAGATAGCGGAGTCACCTAGTGCAG	6760 fluorescence intensity (a.u.)
TTTGTGGGTTTGGGGCTGACTAGATACAGTTGTCGTTTTGCGGAGTCACCTAGTGCAG	6330 fluorescence intensity (a.u.)
AAATAAGCCTGGGGAACCTGACTTGTACAAGCAACCGGTACGGAGTCACCTAGTGCAG	3610 fluorescence intensity (a.u.)
CACTCCAGAACCAAACGTTTGATGACTCTCTGCTTTTGCGCGGAGTCACCTAGTGCAG	4570 fluorescence intensity (a.u.)

Retrieved one by one from the list above, two records:
Sequence	binding signal
TGATTGATGATCTGTCAACAGTCACCTTTTCTTTTATCAACGGAGTCACCTAGTGCAG	5520 fluorescence intensity (a.u.)
CGCATCCACCATTCCATTCACCATTCCACCCCTCGCCCGCCGGAGTCACCTAGTGCAG	23600 fluorescence intensity (a.u.)

More entries

Sequence	binding signal
GATAGCTCTGCAGACTGCAGTTAGAGCTGAGTCAGAGTAACGGAGTCACCTAGTGCAG	7270 fluorescence intensity (a.u.)
CGCGTGCACCACATCGCTTCCGGCCGCGCCAGTCACGCCCCGGAGTCACCTAGTGCAG	3330 fluorescence intensity (a.u.)
GAAAAGTCTCCTAACTGTTCACATGCATGACTGTAAGTGACGGAGTCACCTAGTGCAG	3820 fluorescence intensity (a.u.)
CCGCCGCCGAATCATCCGACTACCGTAGACGCTACGCATACGGAGTCACCTAGTGCAG	3220 fluorescence intensity (a.u.)
GCGCATGACGCGGACACCTTGTTCACTTCCGAAGTGATACCGGAGTCACCTAGTGCAG	8980 fluorescence intensity (a.u.)
TCTATCAGTTCAGAACTGCTATTACACGCCATGGGATCATCGGAGTCACCTAGTGCAG	3580 fluorescence intensity (a.u.)
CGTAAGCGTCCGATCTGGCACGCATCGCATCGCCTGTCCCCGGAGTCACCTAGTGCAG	5270 fluorescence intensity (a.u.)
TGCCACCCTCCTCCCCTCACCGGCACGTGTCCCCACCTCCCGGAGTCACCTAGTGCAG	3800 fluorescence intensity (a.u.)
TAACTAAATGTACAAACAGACGAGTAATGACATGGAGGTTCGGAGTCACCTAGTGCAG	3820 fluorescence intensity (a.u.)
GATCTGCAGATGCTAATAGTACATGACTCACTCAAATCAGCGGAGTCACCTAGTGCAG	5040 fluorescence intensity (a.u.)
TCAATCGCCACGCGCGCTCACCGTCAGCTTTCTGCGGTCGCGGAGTCACCTAGTGCAG	8310 fluorescence intensity (a.u.)
CAAAAGTTTTGACGTGTCACATCGGATATACGGACACACACGGAGTCACCTAGTGCAG	10800 fluorescence intensity (a.u.)
ACTGAAGCTGGCGTACCTTATTGGTTTGTATTGCGTTGTTCGGAGTCACCTAGTGCAG	3380 fluorescence intensity (a.u.)
AATTTGGTGGGGTCGGGGTGGGTGCTTTAACTGGGGAGATCGGAGTCACCTAGTGCAG	3860 fluorescence intensity (a.u.)
CCAAACTAGTTCTTACTGGTTCTTATCGAAGACATGTTCACGGAGTCACCTAGTGCAG	3590 fluorescence intensity (a.u.)
ATCGCAATATACACGCAGGACGTGGACATCCTGTGGTTCCCGGAGTCACCTAGTGCAG	5910 fluorescence intensity (a.u.)
GCGTTTTGCTTTAAGATTGTGAAACGCCACGTGTCATTACCGGAGTCACCTAGTGCAG	23100 fluorescence intensity (a.u.)
CCCCTCCACATGGCGCGCCACACCCACGAGACCACCACGTCGGAGTCACCTAGTGCAG	3180 fluorescence intensity (a.u.)
TTTGAACAGCTCGAAATGCCACGTCAGGCATAGGCAAGTTCGGAGTCACCTAGTGCAG	23800 fluorescence intensity (a.u.)
TGTGTTCACGTCGGCGTACGTGTTTCATCGCAGTGTGCCCCGGAGTCACCTAGTGCAG	4260 fluorescence intensity (a.u.)
CACCATTGTCCCCTGCAAACTTCTAAGCAAAGCTCTATGACGGAGTCACCTAGTGCAG	14100 fluorescence intensity (a.u.)
